Assay results as given in PMC5379670.
Results are given in words; binding and its absence hold for the method and conditions named. In cells and extracts the contact can be indirect. Some results given as binding are weak or reduced against the parent protein; the word gives no strength. For part of these data: Where a sequence is shown, tags or fusion partners need not be part of it.

Protein sequences, listed by entry. Tags and fused reporters are not part of them.
UniProt P20152: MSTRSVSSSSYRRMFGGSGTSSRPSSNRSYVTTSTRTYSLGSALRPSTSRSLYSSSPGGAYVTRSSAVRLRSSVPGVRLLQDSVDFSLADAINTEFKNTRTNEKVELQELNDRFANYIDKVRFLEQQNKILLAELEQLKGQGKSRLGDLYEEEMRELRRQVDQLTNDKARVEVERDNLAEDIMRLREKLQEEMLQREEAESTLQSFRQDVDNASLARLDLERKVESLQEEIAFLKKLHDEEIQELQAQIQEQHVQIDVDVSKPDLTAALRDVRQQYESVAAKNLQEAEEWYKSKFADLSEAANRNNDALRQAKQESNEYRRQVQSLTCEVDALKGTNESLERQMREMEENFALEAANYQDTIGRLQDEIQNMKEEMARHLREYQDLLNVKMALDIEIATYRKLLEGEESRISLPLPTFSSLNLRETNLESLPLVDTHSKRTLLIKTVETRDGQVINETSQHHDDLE

Columns and labels:
[1] = target: endogenous VIME (Vimentin) (mouse (endogenous in P19)) (UniProt P20152); assay: co-IP; endogenous proteins; P19 cells in 1 μM RA for 4 days, then N2 serum-free medium for another 2, 4, 6 days (cells in RA medium for 0, 2, 4 days as control); by the legend immunoprecipitated with anti-FSCN1 or anti-VIME and blotted with anti-MAGE-G1
GST-VIME (mouse) = GST-VIME (mouse) (UniProt P20152); assay: pull-down; GST fusion proteins from E. coli BL21 held on Glutathione-Sepharose 4B beads, washed, incubated with Flag-MAGE-G1 expressed in HEK293T for 4 h at 4 °C; immunoblotting; only the target purified
GFP-VIME (mouse) = GFP-VIME (mouse) (UniProt P20152); assay: co-IP; COS-7 cells transiently co-transfected with Flag-Mage-g1 and a GFP fusion; lysates in IP Lysis Buffer; immunoprecipitation with anti-Flag or, reciprocally, anti-GFP; immunoblotting

B1: endogenous MAGE-G1 (protein, UniProt Q9CPR8 1-279)
chain: MLQKPRGRGRPSTQADPERDWGGAGEEGPSTSRAAGGSSQGSRASLSAPTVGPRTQKQLELKVAELVQFLLIKDQKKIPIKRTDILKHVVGDYRDVYPNLLKLAAERLQYVFGYKLVELEPKSHSYILINMLEPVEADAEMRGDQGTPISGLLMIVLGLIFMKGNTITETEVWDFLRRLGVYPTKKHLIFGDPKKLITEDFVRQRYLEYRRIPHTDPVDYELQWGPRTNLETSKMKVLKFVAKVHNQDPKDWPTQYCEALADEESRARPATASAPATSS
B1 was tested, and the binding [1] was “binds”.

B2: Flag-MAGE-G1 expressed in HEK293T (protein, UniProt Q9CPR8 1-279)
chain: B1 chain
With B2 the binding (GST-VIME (mouse)) was “binds”.

B3: Flag-MAGE-G1 transiently expressed in COS-7 cells (protein, UniProt Q9CPR8 1-279)
chain: B1 chain
B3 was tested, and the binding (GFP-VIME (mouse)) was “binds”.
